Laboratory results published in PMC7251097, “Aspartate/asparagine-β-hydroxylase: a high-throughput mass spectrometric assay for discovery of small molecule inhibitors” (Scientific Reports, 2020).
Counter-ions that a name gives are not always drawn. Like-named read-outs stand apart in the source and are kept apart here.

Molecular target: T1, His6-AspH315–758 (human aspartate/asparagine-β-hydroxylase, AspH) (Homo sapiens, UniProt Q12797)
T1 construct: N-Terminally His6-tagged human AspH315–758 (His6-AspH315–758) was produced in E. coli BL21 (DE3) cells; made in house; host or cells: E. coli BL21 (DE3), pET-28a(+) vector
T1 sequence (Q12797 315-758): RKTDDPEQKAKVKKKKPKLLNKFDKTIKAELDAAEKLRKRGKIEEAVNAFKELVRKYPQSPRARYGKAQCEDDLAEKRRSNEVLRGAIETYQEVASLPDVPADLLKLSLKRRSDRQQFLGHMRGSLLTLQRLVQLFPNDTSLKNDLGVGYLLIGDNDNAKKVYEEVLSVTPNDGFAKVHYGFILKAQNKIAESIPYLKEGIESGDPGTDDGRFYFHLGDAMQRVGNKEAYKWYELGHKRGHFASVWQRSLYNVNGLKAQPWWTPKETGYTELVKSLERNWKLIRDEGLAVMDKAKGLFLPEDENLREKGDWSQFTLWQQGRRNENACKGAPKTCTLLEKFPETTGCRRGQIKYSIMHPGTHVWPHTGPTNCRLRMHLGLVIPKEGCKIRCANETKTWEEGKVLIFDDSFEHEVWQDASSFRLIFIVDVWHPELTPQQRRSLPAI
Test: SPE-MS AspH inhibition assay (LOPAC screen at fixed 20 μM and IC50 dose-response), hydroxylation of cyclic peptide hFX-CP101–119
Type: biochemical

[1] = LOPAC compound at fixed 20 uM, substrate conversion, plate 1
[2] = LOPAC compound at 20uM, conversion of substrate peptide
[3] = LOPAC compound at 20uM, plate 3, conversion of substrate peptide

With `CC[N+](CC)(CC)CC(=O)Nc1c(C)cccc1C.[Br-]` the “Plate 3 (% conversion)” value was 38.04%.
`CC1=C(C(=O)O)N2C(=O)[C@@H](NC(=O)[C@H](N)c3ccccc3)[C@H]2SC1.O` [Cephalexin hydrate] was tested, and the “Plate 1 (% conversion)” value [1] was 31.01%.
For `CN1[C@@H]2CC[C@H]1C[C@@H](OC(=O)C(CO)c1ccccc1)C2` (stereo partly shown) [Atropine sulfate], the “Plate 1 (% conversion)” value was 34.94%.
`NS(=O)(=O)c1cc(C(=O)O)c(NCc2ccco2)cc1Cl` [Furosemide] was tested, and the “Plate 2 (% conversion)” value [2] was 35.06%.
With `CN(C)CCOC(c1ccccc1)c1ccccc1` [Diphenhydramine hydrochloride] the “Plate 2 (% conversion)” value [2] was 38.54%.
For `CCOC(=O)N1CCC(=C2c3ccc(Cl)cc3CCc3cccnc32)CC1` [Loratadine], the “Plate 3 (% conversion)” value [3] was 39.31%.
`O=C(O)COCCN1CCN(C(c2ccccc2)c2ccc(Cl)cc2)CC1` (stereo not shown) [Cetirizine dihydrochloride] was tested, and the “Plate 2 (% conversion)” value [2] was 37.89%.
For `CC(C)c1c(C(=O)Nc2ccccc2)c(-c2ccccc2)c(-c2ccc(F)cc2)n1CC[C@@H](O)C[C@@H](O)CC(=O)O` [Atorvastatin calcium salt trihydrate], the “Plate 1 (% conversion)” value [1] was 35.35% and the “Plate 5 (% conversion)” value (plate 5 (Pfitzer), test compounds at fixed 20 μM, mean conversion DMSO 32.88) was 30.47%.
With `Cc1cnc(C(=O)NCCc2ccc(S(=O)(=O)NC(=O)NC3CCCCC3)cc2)cn1` [Glipizide] the “Plate 2 (% conversion)” value [2] was 38.93%.
In the case of `CN[C@H](CC(C)C)C(=O)N[C@H]1C(=O)N[C@@H](CC(N)=O)C(=O)N[C@H]2C(=O)N[C@H]3C(=O)N[C@H](C(=O)N[C@H](C(=O)O)c4cc(O)cc(O)c4-c4cc3ccc4O)[C@H](O)c3ccc(c(Cl)c3)Oc3cc2cc(c3O[C@@H]2O[C@H](CO)[C@@H](O)[C@H](O)[C@H]2O[C@H]2C[C@](C)(N)[C@H](O)[C@H](C)O2)Oc2ccc(cc2Cl)[C@H]1O.Cl`, the “% conversion” value is reported as 26.47%.
With `CCCCc1oc2ccccc2c1C(=O)c1cc(I)c(OCCN(CC)CC)c(I)c1` [Amiodarone hydrochloride] the “Plate 1 (% conversion)” value [1] was 25.09%.
For `Br.CN1[C@@H]2CC(OC(=O)[C@H](CO)c3ccccc3)C[C@H]1[C@@H]1O[C@@H]12` (single isomer, unassigned; (-)) [(-)-Scopolamine hydrobromide], the “% conversion” value was 39.78%.
With `CCN(CC)CC(=O)Nc1c(C)cccc1C` [Lidocaine hydrochloride] the “Plate 3 (% conversion)” value [3] was 40.90%.
With `CCCNCC(O)COc1ccccc1C(=O)CCc1ccccc1` (stereo not shown) [Propafenone hydrochloride] the “Plate 3 (% conversion)” value [3] was 40.93%.
In the case of `CCCC[N+]1(C)[C@@H]2C[C@@H](OC(=O)[C@H](CO)c3ccccc3)C[C@H]1[C@@H]1O[C@@H]12.[Br-]` (single isomer, unassigned; (-)) [(-)-Scopolamine,n-Butyl-, bromide], the “% conversion” value is reported as 32.88%.
